Data reported in article doi:10.1101/2022.06.15.495552.
Results are given in words; binding and its absence hold for the method and conditions named. For part of these data: Binding seen in cells or lysates may run through a third protein. Some entries that bind do so weakly or less than the wild type.

Protein sequences, listed by entry. Tags and fused reporters are not part of them. Residues count along the entry.
UniProt Q12905, 29-390: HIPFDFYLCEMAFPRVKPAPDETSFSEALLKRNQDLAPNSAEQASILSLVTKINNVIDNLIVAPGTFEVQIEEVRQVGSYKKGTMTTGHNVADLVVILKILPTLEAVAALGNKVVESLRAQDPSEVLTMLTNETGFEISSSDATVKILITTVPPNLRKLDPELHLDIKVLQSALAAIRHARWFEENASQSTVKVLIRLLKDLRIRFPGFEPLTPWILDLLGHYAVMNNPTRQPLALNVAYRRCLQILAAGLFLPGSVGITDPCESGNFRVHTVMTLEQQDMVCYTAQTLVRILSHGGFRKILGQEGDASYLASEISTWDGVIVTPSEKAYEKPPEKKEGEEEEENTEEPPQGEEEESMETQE
UniProt Q12905, whole entry: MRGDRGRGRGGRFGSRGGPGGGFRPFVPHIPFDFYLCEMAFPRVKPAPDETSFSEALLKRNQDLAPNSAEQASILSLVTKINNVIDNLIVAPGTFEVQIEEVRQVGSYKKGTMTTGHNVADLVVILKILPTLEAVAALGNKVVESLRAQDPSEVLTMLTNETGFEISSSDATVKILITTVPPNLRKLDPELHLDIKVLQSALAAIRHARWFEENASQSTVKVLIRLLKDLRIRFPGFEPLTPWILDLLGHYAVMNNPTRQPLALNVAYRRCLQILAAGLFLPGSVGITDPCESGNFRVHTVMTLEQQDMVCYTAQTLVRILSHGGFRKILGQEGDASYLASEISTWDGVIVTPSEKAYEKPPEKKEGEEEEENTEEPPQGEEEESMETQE
UniProt Q96KR1, 317-1074: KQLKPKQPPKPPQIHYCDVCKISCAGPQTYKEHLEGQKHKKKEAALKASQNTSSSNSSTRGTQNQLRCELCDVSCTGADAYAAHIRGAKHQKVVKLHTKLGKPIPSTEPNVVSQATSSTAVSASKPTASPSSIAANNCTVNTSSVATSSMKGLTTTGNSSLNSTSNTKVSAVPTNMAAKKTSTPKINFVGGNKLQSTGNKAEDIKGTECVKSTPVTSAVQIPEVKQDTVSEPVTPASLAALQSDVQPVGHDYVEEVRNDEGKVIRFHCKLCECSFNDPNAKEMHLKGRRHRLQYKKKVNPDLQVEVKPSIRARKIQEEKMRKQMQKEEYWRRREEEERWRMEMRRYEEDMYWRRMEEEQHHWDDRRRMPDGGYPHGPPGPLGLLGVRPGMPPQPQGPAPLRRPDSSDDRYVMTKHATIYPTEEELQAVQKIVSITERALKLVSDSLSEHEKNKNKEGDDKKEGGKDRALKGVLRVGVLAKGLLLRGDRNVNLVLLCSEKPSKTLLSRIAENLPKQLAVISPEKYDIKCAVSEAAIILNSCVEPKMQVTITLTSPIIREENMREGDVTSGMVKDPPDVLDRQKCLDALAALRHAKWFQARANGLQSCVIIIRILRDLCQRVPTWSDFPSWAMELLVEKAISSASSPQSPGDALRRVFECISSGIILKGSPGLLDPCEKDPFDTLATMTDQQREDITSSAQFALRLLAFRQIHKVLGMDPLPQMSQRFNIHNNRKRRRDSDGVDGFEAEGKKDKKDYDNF
UniProt Q96KR1, 725-1074: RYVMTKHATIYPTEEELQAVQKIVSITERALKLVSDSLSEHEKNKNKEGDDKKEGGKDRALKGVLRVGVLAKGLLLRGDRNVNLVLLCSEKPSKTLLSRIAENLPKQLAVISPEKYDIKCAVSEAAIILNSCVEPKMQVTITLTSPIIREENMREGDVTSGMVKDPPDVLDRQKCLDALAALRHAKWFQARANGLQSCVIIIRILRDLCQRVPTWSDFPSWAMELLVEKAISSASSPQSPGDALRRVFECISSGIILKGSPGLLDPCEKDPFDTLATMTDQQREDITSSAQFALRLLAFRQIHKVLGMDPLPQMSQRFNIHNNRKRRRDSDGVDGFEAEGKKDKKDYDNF
UniProt Q96KR1, whole entry: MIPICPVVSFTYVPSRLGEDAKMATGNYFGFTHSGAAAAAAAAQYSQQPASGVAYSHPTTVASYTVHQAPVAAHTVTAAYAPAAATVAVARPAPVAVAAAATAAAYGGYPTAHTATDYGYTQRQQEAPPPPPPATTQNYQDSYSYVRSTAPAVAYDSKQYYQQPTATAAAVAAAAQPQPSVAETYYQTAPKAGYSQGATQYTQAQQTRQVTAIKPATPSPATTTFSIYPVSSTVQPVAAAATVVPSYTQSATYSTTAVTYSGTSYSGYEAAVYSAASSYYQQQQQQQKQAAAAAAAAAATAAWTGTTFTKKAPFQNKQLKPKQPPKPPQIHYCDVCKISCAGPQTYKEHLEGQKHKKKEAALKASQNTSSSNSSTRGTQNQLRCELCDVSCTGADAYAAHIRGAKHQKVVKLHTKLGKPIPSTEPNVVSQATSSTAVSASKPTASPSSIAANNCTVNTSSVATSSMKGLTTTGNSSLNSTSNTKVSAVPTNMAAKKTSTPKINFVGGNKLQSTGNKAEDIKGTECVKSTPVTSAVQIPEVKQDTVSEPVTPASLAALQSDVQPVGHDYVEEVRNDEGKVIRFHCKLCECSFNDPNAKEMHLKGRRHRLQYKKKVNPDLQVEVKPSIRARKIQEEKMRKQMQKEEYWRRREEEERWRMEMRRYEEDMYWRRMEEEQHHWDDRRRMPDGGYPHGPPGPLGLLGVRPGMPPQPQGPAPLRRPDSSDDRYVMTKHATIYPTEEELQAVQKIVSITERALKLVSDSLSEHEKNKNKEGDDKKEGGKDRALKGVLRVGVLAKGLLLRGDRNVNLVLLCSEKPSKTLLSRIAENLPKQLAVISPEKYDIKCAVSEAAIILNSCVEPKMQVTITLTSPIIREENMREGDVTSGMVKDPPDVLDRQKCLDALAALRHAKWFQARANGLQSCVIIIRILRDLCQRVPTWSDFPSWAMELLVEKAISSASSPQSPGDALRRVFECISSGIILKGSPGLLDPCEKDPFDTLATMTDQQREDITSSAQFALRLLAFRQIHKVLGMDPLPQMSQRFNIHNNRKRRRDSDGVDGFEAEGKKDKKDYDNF

Columns and labels:
ILF2_(29-390) (human) = ILF2_(29-390) (human) (UniProt Q12905); experiment: SEC
3XFLAG-ILF2 (human) = 3XFLAG-ILF2 (human) (UniProt Q12905); experiment: co-IP

Row | binding (ILF2_(29-390) (human)) | binding (3XFLAG-ILF2 (human)) | Substance
1 | binds | – | ZFRDZF (residues 725-1074) (from UniProt Q96KR1 725-1074) (domain or fragment)
2 | binds | – | ZFR_(long) (residues 317-1074) (from UniProt Q96KR1 317-1074) (domain or fragment)
3 | – | binds | endogenous ZFR (from UniProt Q96KR1 1-1074)
